From patent US20250263437A1, “POLYPEPTIDE FOR REPAIRING SKIN WOUND OR MUCOSAL INJURY, AND APPLICATION THEREOF” (Sichuan Gooddoctor Panxi Pharmaceutical Co., Ltd., priority 2021, published 2025)
Some of these results come from one statement about several compounds together. Where no end group is shown, it is not given here.

The chains behind the UniProt entries cited, without tags or fusion partners. Residues count along the entry.
UniProt P11362, 22-822, species assumed: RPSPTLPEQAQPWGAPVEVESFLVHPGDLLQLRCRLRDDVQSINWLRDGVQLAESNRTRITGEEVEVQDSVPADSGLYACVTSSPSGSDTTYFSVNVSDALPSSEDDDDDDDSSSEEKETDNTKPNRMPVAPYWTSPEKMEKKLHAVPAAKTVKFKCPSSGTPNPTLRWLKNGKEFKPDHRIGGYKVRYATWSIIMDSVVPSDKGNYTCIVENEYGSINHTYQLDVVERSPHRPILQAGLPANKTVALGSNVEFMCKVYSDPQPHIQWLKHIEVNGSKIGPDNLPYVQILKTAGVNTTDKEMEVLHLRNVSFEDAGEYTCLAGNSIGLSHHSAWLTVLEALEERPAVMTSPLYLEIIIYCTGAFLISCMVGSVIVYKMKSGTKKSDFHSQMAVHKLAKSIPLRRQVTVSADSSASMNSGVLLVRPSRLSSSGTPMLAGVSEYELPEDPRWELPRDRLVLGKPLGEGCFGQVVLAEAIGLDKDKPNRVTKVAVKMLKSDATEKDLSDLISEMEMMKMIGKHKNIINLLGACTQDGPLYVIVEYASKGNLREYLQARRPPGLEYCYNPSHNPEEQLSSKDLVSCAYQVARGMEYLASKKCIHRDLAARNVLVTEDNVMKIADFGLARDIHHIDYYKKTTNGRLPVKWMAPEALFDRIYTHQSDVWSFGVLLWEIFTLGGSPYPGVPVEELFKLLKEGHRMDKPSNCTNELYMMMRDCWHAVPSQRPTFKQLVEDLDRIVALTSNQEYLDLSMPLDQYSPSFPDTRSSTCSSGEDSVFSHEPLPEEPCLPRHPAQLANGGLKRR

These sequences were tested against FGFR1 (Homo sapiens, UniProt P11362) (assay: FGFR receptor binding assay: ultrafiltration/mass spectrometry affinity screening to FGFR1 protein target).
Description: The affinity of the polypeptide compound prepared by the present invention to FGFR1 was tested by using a control FGFR1 allosteric inhibitor (product number SSR128129E from Sigma) as a positive compound control.
Screening for the affinity to FGFR1 was as follows: FGFR1 solutions with an appropriate concentration were taken, the positive compound SSR128129E (Sigma) at an appropriate concentration and sample solutions of the inventive polypeptide compounds, as freeze-dried powders, dissolved in protein buffers were then respectively added. After incubation at room temperature for 50 min, ultrafiltration and screening were carried out to obtain various treated solutions. An appropriate volume of acetonitrile was added to each treated solution to precipitate a protein, the solution was then centrifuged, and the supernatant was taken and analyzed by mass spectrometry.
Affinity screening conditions: One-dimensional liquid-phase conditions were: chromatographic column; PolyLC chromatographic column, mobile phase A: KH2PO4, NaCl, pH 7.5, mobile phase B: acetonitrile, column temperature: 8° C., flow rate: 1 mL/min, and injection volume: appropriate; and two-dimensional liquid-phase conditions were: chromatographic column: BONUS RRHD, mobile phase A: 0.1% formic acid aqueous solution, mobile phase B: 0.1% formic acid in acetonitrile, column temperature: 60° C., flow rate: 0.3 mL/min, and injection volume: 40 uL. Gradient elution was used, i.e., 98% A (0-1 min), 98-10% A (1-6 min), 10% A (6-7.5 min), 10-98% A (7.5-8 min), and 98% A (8-9.5 min). Mass spectrometry conditions: Agilent 6530 Q-Tof, ESI ion source, voltage 3.5 KV, mass-to-charge ratio scanning range m/z=200-3000, acquisition mode: positive ion scanning, ion source temperature: 350° C., solvent removal temperature: 300° C., and nitrogen flow rate: 8 L/min.

Sequence | affinity for FGFR1 (affinity screening result)
FDALKQQFQAFQLE [Compound 62] | have affinity for FGFR1
KFYSQSTASSSYAYPSHFGPAGFSGSHS [Compound 70] | have affinity for FGFR1
VDAAVLEKLE [Compound 67] | have affinity for FGFR1
AAVLDKLE [Compound 68] | have affinity for FGFR1
AARLADELRAE [Compound 65] | have affinity for FGFR1
SMQASLEAEAKGKAE [Compound 1] | have affinity for FGFR1
HCLAGLKKDLEDLE [Compound 63] | have affinity for FGFR1
VDAAVIEKIE [Compound 71] | have affinity for FGFR1
ETLQRKNKE [Compound 66] | have affinity for FGFR1
AAVLEKLE [Compound 69] | have affinity for FGFR1
VDAAVLMLRT [Compound 73] | have affinity for FGFR1
VDAAMVLLTR [Compound 72] | have affinity for FGFR1
